# Some of the results follow.
# How the values were obtained:
# Experiment in all cases: glycan array binding signal (z-score within array); higher = stronger binding
# Details in all cases: glycan notation: IUPAC condensed, linker removed
# [1] = molecular target: Gal6S(b1-4)Glc6S
# In short: (§1)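 The Consortium for Functional Glycomics database supplied 3228 glycan arrays, of which those lacking an available protein sequence were dropped. The binding signal, a within-array Z-score, was averaged across arrays of the same protein sequence and across linkers. Negative scores can be read as non-binding.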
# [2] = molecular target: Gal6S(b1-4)GlcNAc
# In short: as §1
# [3] = molecular target: Gal6S(b1-4)GlcNAc6S
# In short: as §1
# [4] = molecular target: GalNAc(a1-3)Gal
# In short: as §1
# [5] = molecular target: GalNAc(a1-3)GalNAc
# In short: as §1
# [6] = molecular target: GalNAc(a1-3)GalNAc(b1-3)Gal(a1-4)Gal(b1-4)Glc
# In short: as §1
# [7] = molecular target: GalNAc(a1-3)GalNAc(b1-3)Gal(a1-4)Gal(b1-4)GlcNAc
# In short: as §1
# [8] = molecular target: GalNAc(b1-3)Gal
# In short: as §1
# [9] = molecular target: GalNAc(b1-3)Gal(a1-4)Gal(b1-4)GlcNAc
# In short: as §1
# [10] = molecular target: GalNAc(b1-3)Gal(a1-4)Gal(b1-4)GlcNAc(b1-3)Gal(b1-4)Glc
# In short: as §1
# [11] = molecular target: GalNAc(b1-3)Gal(a1-6)Gal(b1-4)Glc
# In short: as §1
# [12] = molecular target: GalNAc(b1-3)GalNAc
# In short: as §1
# [13] = molecular target: GalNAc(b1-3)GlcNAc
# In short: as §1
# [14] = molecular target: GalNAc(b1-4)Gal(b1-4)Glc
# In short: as §1
# [15] = molecular target: GalNAc(b1-4)GlcNAc
# In short: as §1
# [16] = molecular target: GalNAc(b1-4)GlcNAc(b1-2)Man
# In short: as §1
# [17] = molecular target: GalNAc(b1-4)GlcNAc(b1-2)Man(a1-3)[GalNAc(b1-4)GlcNAc(b1-2)Man(a1-6)]Man(b1-4)GlcNAc(b1-4)GlcNAc
# In short: as §1
# [18] = molecular target: GalNAc(b1-4)GlcNAc(b1-3)GalNAc(b1-4)GlcNAc
# In short: as §1
# [19] = molecular target: GalNAc(b1-4)GlcNAc6S
# In short: as §1
# [20] = molecular target: GalNAc(b1-6)GalNAc
# In short: as §1
# [21] = molecular target: GalNAc3S(b1-4)GlcNAc
# In short: as §1
# [22] = molecular target: GalNAc3S(b1-4)GlcNAc3S
# In short: as §1
# [23] = molecular target: GalNAc3S(b1-4)[Fuc(a1-3)]GlcNAc
# In short: as §1
# [24] = molecular target: GalNAc4S6S(b1-4)GlcNAc
# In short: as §1
# [25] = molecular target: GalNAc6S(b1-4)GlcNAc
# In short: as §1
# [26] = molecular target: Glc(a1-4)Glc
# In short: as §1
# [27] = molecular target: Glc(a1-4)Glc(a1-4)Glc(a1-4)Glc
# In short: as §1
# [28] = molecular target: Glc(a1-6)Glc(a1-6)Glc
# In short: as §1
# [29] = molecular target: Glc(a1-6)Glc(a1-6)Glc(a1-6)Glc
# In short: as §1
# [30] = molecular target: Glc(b1-4)Glc
# In short: as §1
# [31] = molecular target: Glc(b1-6)Glc
# In short: as §1
# [32] = molecular target: GlcA(b1-3)Gal
# In short: as §1
# [33] = molecular target: GlcA(b1-3)GlcNAc
# In short: as §1
# [34] = molecular target: GlcA(b1-6)Gal
# In short: as §1
# [35] = molecular target: GlcA3S(b1-3)Gal(b1-4)GlcNAc(b1-2)Man
# In short: as §1
# [36] = molecular target: GlcA3S(b1-3)Gal(b1-4)GlcNAc(b1-3)Gal(b1-4)Glc
# In short: as §1
# [37] = molecular target: GlcNAc(a1-3)Gal(b1-4)GlcNAc
# In short: as §1
# [38] = molecular target: GlcNAc(a1-4)Gal(b1-3)GlcNAc
# In short: as §1
# [39] = molecular target: GlcNAc(a1-4)Gal(b1-4)GalNAc
# In short: as §1
# [40] = molecular target: GlcNAc(a1-4)Gal(b1-4)GlcNAc
# In short: as §1
# [41] = molecular target: GlcNAc(a1-4)Gal(b1-4)GlcNAc(b1-3)Gal(b1-4)Glc
# In short: as §1
# [42] = molecular target: GlcNAc(a1-4)Gal(b1-4)GlcNAc(b1-3)Gal(b1-4)GlcNAc
# In short: as §1
# [43] = molecular target: GlcNAc(a1-4)Gal(b1-4)GlcNAc(b1-3)Gal(b1-4)GlcNAc(b1-3)Gal(b1-4)GlcNAc
# In short: as §1
# [44] = molecular target: GlcNAc(a1-4)Gal(b1-4)GlcNAc(b1-3)Gal(b1-4)[Fuc(a1-3)]GlcNAc(b1-3)Gal(b1-4)[Fuc(a1-3)]GlcNAc
# In short: as §1
# [45] = molecular target: GlcNAc(a1-6)Gal(b1-4)GlcNAc
# In short: as §1
binder,measurement,setting,value
LlpB (Pseudomonas fluorescens) (protein) MGSSHHHHHHSSGLVPRGSHMASSGFRIILFNSANNGTAILPPRNCLVAGQYLESPSKRYKLILEADGNLRLYDNGVPIWVADSSVPYTYVDNRPNTNLVTCFYMQGSAFLVDRVGSRTWATIGDWIDGAADRAYLQVQDDGNVVVVDGVPRWARFGFTPAALPNRGVFYPDHGTGPLPSFPVWSWTF,glycan array binding signal (z-score),[1],-0.418
same,glycan array binding signal (z-score),[2],-0.499
same,glycan array binding signal (z-score),[3],-0.293
same,glycan array binding signal (z-score),[4],-0.628
same,glycan array binding signal (z-score),[5],-1.05
same,glycan array binding signal (z-score),[6],0.945
same,glycan array binding signal (z-score),[7],0.124
same,glycan array binding signal (z-score),[8],-1.09
same,glycan array binding signal (z-score),[9],-0.832
same,glycan array binding signal (z-score),[10],0.041
same,glycan array binding signal (z-score),[11],0.079
same,glycan array binding signal (z-score),[12],-0.537
same,glycan array binding signal (z-score),[13],-0.516
same,glycan array binding signal (z-score),[14],-0.149
same,glycan array binding signal (z-score),[15],0.773
same,glycan array binding signal (z-score),[16],0.18
same,glycan array binding signal (z-score),[17],-0.04
same,glycan array binding signal (z-score),[18],1.16
same,glycan array binding signal (z-score),[19],-0.975
same,glycan array binding signal (z-score),[20],0.3
same,glycan array binding signal (z-score),[21],0.402
same,glycan array binding signal (z-score),[22],-0.847
same,glycan array binding signal (z-score),[23],-0.592
same,glycan array binding signal (z-score),[24],1.16
same,glycan array binding signal (z-score),[25],-0.369
same,glycan array binding signal (z-score),[26],-0.364
same,glycan array binding signal (z-score),[27],0.312
same,glycan array binding signal (z-score),[28],-0.74
same,glycan array binding signal (z-score),[29],-0.961
same,glycan array binding signal (z-score),[30],-0.427
same,glycan array binding signal (z-score),[31],1.14
same,glycan array binding signal (z-score),[32],0.55
same,glycan array binding signal (z-score),[33],0.105
same,glycan array binding signal (z-score),[34],2.27
same,glycan array binding signal (z-score),[35],-1.09
same,glycan array binding signal (z-score),[36],-1.73
same,glycan array binding signal (z-score),[37],-0.472
same,glycan array binding signal (z-score),[38],-0.343
same,glycan array binding signal (z-score),[39],-0.568
same,glycan array binding signal (z-score),[40],0.909
same,glycan array binding signal (z-score),[41],-1.5
same,glycan array binding signal (z-score),[42],1.1
same,glycan array binding signal (z-score),[43],0.637
same,glycan array binding signal (z-score),[44],1.5
same,glycan array binding signal (z-score),[45],0.156

# 2 entries picked at random from those above:
binder,measurement,setting,value
LlpB (Pseudomonas fluorescens) (protein) MGSSHHHHHHSSGLVPRGSHMASSGFRIILFNSANNGTAILPPRNCLVAGQYLESPSKRYKLILEADGNLRLYDNGVPIWVADSSVPYTYVDNRPNTNLVTCFYMQGSAFLVDRVGSRTWATIGDWIDGAADRAYLQVQDDGNVVVVDGVPRWARFGFTPAALPNRGVFYPDHGTGPLPSFPVWSWTF,glycan array binding signal (z-score),[41],-1.5
same,glycan array binding signal (z-score),[6],0.945
